In patent publication US9744188B2, “Methods of promoting neuronal outgrowth by gypican 2 that binds to receptor protein tyrosine phosphatase sigma” (PRESIDENT AND FELLOWS OF HARVARD COLLEGE, priority 2011, dated 2017):
Some of these results come from one statement about several compounds together.

T1: mouse RPTPσ sEcto-Fc (Mus musculus, UniProt B0V2N1)
T1 construct: made in house; host or cells: transiently transfected 293T cells
T1 sequence (B0V2N1 30-851 isoform B0V2N1-3 limits assumed): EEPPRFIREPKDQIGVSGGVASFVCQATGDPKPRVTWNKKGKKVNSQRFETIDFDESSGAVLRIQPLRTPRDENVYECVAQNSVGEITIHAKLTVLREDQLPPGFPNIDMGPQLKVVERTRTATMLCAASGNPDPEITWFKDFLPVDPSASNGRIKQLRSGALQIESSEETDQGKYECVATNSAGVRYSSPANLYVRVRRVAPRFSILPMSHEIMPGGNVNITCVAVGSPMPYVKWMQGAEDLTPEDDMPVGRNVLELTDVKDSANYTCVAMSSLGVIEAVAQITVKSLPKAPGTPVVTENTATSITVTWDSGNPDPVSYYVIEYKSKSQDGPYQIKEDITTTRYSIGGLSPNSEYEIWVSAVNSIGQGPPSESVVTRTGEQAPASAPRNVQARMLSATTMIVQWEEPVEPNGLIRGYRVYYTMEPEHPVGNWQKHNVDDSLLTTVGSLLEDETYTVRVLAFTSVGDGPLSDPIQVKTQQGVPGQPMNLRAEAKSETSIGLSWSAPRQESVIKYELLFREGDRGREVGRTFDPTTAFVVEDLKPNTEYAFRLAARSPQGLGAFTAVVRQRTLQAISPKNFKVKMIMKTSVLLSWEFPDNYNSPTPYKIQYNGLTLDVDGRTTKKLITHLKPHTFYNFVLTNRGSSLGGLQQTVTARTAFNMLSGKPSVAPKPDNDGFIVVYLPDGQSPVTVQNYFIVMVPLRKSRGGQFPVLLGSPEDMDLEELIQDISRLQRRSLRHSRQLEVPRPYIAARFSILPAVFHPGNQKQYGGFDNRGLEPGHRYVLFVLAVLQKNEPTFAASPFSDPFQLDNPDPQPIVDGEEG

B1: neurocan: a representative CSPG; Neurocan-AP fusion in binding assays, recombinant mouse Neurocan (5800-NC, R&D Systems) in outgrowth assays (protein)
chain: DQDTQDTTATEKGLRMLKSGSGPVRAALAELVALPCFFTLQPRLSSLRDIPRIKWTKVQTASGQRQDLPILVAKDNVVRVAKGWQGRVSLPAYPRHRANATLLLGPLRASDSGLYRCQVVKGIEDEQDLVTLEVTGVVFHYRAARDRYALTFAEAQEACRLSSATIAAPRHLQAAFEDGFDNCDAGWLSDRTVRYPITQSRPGCYGDRSSLPGVRSYGRRDPQELYDVYCFARELGGEVFYVGPARRLTLAGARAQCQRQGAALASVGQLHLAWHEGLDQCDPGWLADGSVRYPIQTPRRRCGGPAPGVRTVYRFANRTGFPAPGARFDAYCFRAHHHTAQHGDSEIPSSGDEGEIVSAEGPPGRELKPSLGEQEVIAPDFQEPLMSSGEGEPPDLTWTQAPEETLGSTPGGPTLASWPSSEKWLFTGAPSSMGVSSPSDMGVDMEATTPLGTQVAPTPTMRRGRFKGLNGRHFQQQGPEDQLPEVAEPSAQPPTLGATANHMRPSAATEASESDQSHSPWAILTNEVDEPGAGSLGSRSLPESLMWSPSLISPSVPSTESTPSPKPGAAEAPSVKSAIPHLPRLPSEPPAPSPGPSEALSAVSLQASSADGSPD
B2: glypican-2: a representative HSPG; Glypican2-AP fusion in binding assays, recombinant mouse Glypican-2 (2355-GP, R&D Systems) in outgrowth assays (protein)
chain: HGSEAKVVRSCAETRQVLGARGYSLNLIPPSLISGEHLQVCPQEYTCCSSETEQKLIRDAEVTFRGLVEDSGSFLIHTLAARHRKFNEFFREMLSISQHSLAQLFSHSYGRLYSQHAVIFNSLFSGLRDYYEKSGEGLDDTLADFWAQLLERAFPLLHPQYSFPPDFLLCLTRLTSTADGSLQPFGDSPRRLRLQISRALVAARALVQGLETGRNVVSEALKVPVLEGCRQALMRLIGCPLCRGVPSLMPCRGFCLNVAHGCLSSRGLEPEWGGYLDGLLLLAEKLQGPFSFELAAESIGVKISEGLMHLQENSVKVSAKVFQECGTPHPVQSRSRRAPAPREEASRSWRASAEEERPTTAAGTNLHRLVWELRERLSRVRGFWAGLPVTVCGDSRMAADLSQETAPCWTGVGRGRYMSPVVVGSLNEQLHNPELDTSSPDVPTRRRRLHLRAATARMKAAALGQDLDMHDADEDASGSGGGQQYADDWKAGAVPVVPPARPPRPPRPPRRDGLGVRGGSGSARYNQGRSRNLGS

Target: T1, mouse RPTPσ sEcto-Fc
Experiment: Solid phase binding assay: proteoglycan-AP fusion proteins on immobilised RPTPσ sEcto-Fc
Details: one-to-one binding assumed, read-out: Kd, interaction affinity with RPTPσ sEcto
Description: Analysis of binding between RPTPσ sEcto-Fc and Glypican-2 or Neurocan alkaline phosphate (AP) fusion proteins was performed as described previously (S2, S26). All fusion proteins were produced in transiently transfected 293T cells. Briefly, the RPTPσ Fc-fusion protein was immobilised on 96-well Reactibind Protein A-coated plates (Pierce) and incubated with soluble proteoglycan-AP proteins which had been normalized for equal input AP activity. AP activity was determined by measuring substrate turnover on a microplate reader as described (S27, S28). […] In FIG. 23, the binding between RPTPσ-Fc and heparin-derived size-fractionated oligosaccharides with different lengths (HS6, HS8, HS10, HS17, HS23, HS30 and HS67, corresponding to hexasaccharide, octasaccharide, decasaccharide, or approximately 17, 23, 30 and 67 saccharide units; molecular weights 1,800 Da, 3,000 Da, 5,000 Da, 7,000 Da, 9,000 Da, and 20,000 Da; Neoparin) was analyzed with RPTPσ-Fc immobilised on 96-well Reactibind Protein A-coated plates (Pierce) and incubated with soluble biotinalated HS. The bound HS was quantified by AP enzyme activity following incubation with streptavidin-AP (Promega). […]

Row | Molecule | Kd
1 | B1 | 10 to 20 nM
2 | B2 | 10 to 20 nM
